According to the supplement of paper PMC4371806:
Over roughly 2,300 compounds, “plate-normalized OD600 growth (mean of duplicates)” has its median near 0.29; the lowest 2% begin near 0.22. This is one part of the list.

System: Escherichia coli BW25113
Test: plate-normalized OD600 growth (mean of duplicates) (OD600 (normalized)); higher = more growth (less inhibition)
Conditions: 10 µM
Description: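 E. coli BW25113 in LB (100 µl, 96-well, no shaking) was exposed to 10 µM of each compound from a ~30,000-member library and grown at 37°C for 24 h or 15°C for 48 h, in duplicate. Growth was read as OD600 and the duplicate ODs were normalized across screening plates to correct plate-to-plate variation. Hits were >3σ below the mean OD600 at 15°C and <2σ below the mean at 37°C.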

| SMILES | plate-normalized OD600 growth (temperature: 15°C, 48 h) | plate-normalized OD600 growth (temperature: 37°C, 24 h) |
| --- | --- | --- |
| Cc1cccc(NC(=O)COc2ccccc2C(=O)NCCNc2ccc([N+](=O)[O-])cc2)c1 | 0.209 | 0.656 |
| O=[N+]([O-])c1ccc(C2=NN(c3ccccc3)C(c3ccco3)C2)cc1 (stereo unspecified) | 0.243 | 0.612 |
| COc1ccc(-n2c3c(c(=O)[nH]c2=O)C(NC(=O)c2ccncc2)(C(F)(F)F)C(=O)N3)cc1 (stereo unspecified) | 0.256 | 0.623 |
| Cc1oc(-c2ccccc2)cc1C(=O)N1CCN(c2ccc([N+](=O)[O-])cc2)CC1 | 0.265 | 0.667 |
| Cc1cccc(NCN2C(=O)CCC2=O)n1 | 0.256 | 0.622 |
| CCOc1c(/C=C2/SC(=Nc3ccccc3)N(Cc3ccccc3)C2=O)cccc1OC | 0.251 | 0.609 |
| COc1ccc(C2CC(=O)N2C2(C(=O)Nc3c(C)cccc3C)CCCCC2)cc1OC (stereo unspecified) | 0.24 | 0.605 |
| O=C(c1ccccc1)c1cc2c(cc1Br)OCCO2 | 0.246 | 0.645 |
| O=[N+]([O-])c1ccc(N2CCOCC2)cc1 | 0.254 | 0.65 |
| S=c1[nH]nc(SCCSc2n[nH]c(=S)s2)s1 | 0.257 | 0.616 |
| COc1ccc(-c2cc(C(F)(F)F)n3nc(C(=O)Nc4ccc(F)c(Cl)c4)c(Cl)c3n2)cc1 | 0.232 | 0.644 |
| O=C(Nc1ccccn1)NC(c1ccccc1Cl)P(=O)(Oc1ccccc1)Oc1ccccc1 (stereo unspecified) | 0.249 | 0.597 |
| C1CCN(CCC2CCCCN2)CC1 (stereo unspecified) | 0.247 | 0.614 |
| COc1ccc(-c2cc(C(F)(F)F)n3nc(C(=O)NC(C)(C)C)c(Cl)c3n2)cc1OC | 0.245 | 0.619 |
| COc1ccc2nc(C(=O)O)sc2c1 | 0.241 | 0.633 |
| N/C(=N/OC(=O)c1ccccc1)c1ccc(-c2csnn2)cc1 | 0.252 | 0.6 |
| CSc1nc(N)n(-c2ccccc2)n1 | 0.251 | 0.618 |
| CC(/C=N\O)=N/Nc1ccccc1 | 0.253 | 0.612 |
| CCOC(=O)c1c(Nc2ccccc2)sc([N+](=O)[O-])c1N | 0.268 | 0.634 |
| Cc1cc(C)nc(SCC(=O)NCC(C)NC(=O)CSc2nc(C)cc(C)n2)n1 (stereo unspecified) | 0.243 | 0.61 |
| CN1C(=O)N(C)C2(c3ccccc3)NN3C(=O)CSC3=NC12c1ccccc1 (stereo unspecified) | 0.242 | 0.59 |

| SMILES | plate-normalized OD600 growth (temperature: 15°C, 48 h) | plate-normalized OD600 growth (temperature: 37°C, 24 h) |
| --- | --- | --- |
| C=C1N(c2ccccc2)C(=O)OC1(C)C | 0.244 | 0.62 |
| COc1cc(C2Nc3cccc4cccc(c34)N2)cc(OC)c1OC | 0.233 | 0.636 |
| O=C(O)C1c2ccccc2C(=O)N(Cc2ccc3c(c2)OCO3)C1c1cccnc1 (stereo unspecified) | 0.281 | 0.654 |
| NC(=S)CS(=O)(=O)c1ccc(C(F)(F)F)cc1 | 0.252 | 0.631 |
| Cc1oc(N=C/C=C/c2ccccc2)c(C#N)c1C | 0.256 | 0.644 |
| Cc1cc(C)c(I)c(C)c1 | 0.254 | 0.611 |
| Cc1ccc(NC(=O)c2ccc(Oc3ccc(C(=O)Nc4ccc(C)cc4C)cc3)cc2)c(C)c1 | 0.241 | 0.614 |
| CCOC(=O)c1c(N)oc2c(-c3ccc(C)c(Cl)c3)c3c(C(=O)OCC)c(N)oc3cc12 | 0.218 | 0.622 |
| COc1cc(CCNC(=O)OC(C)(C)C)c([S+]([O-])CSCc2ccccc2)cc1OC (stereo unspecified) | 0.238 | 0.613 |
| CCN(CC)c1ccc(/C=C(\C#N)c2nc3ccc(C)cc3[nH]2)cc1[N+](=O)[O-] | 0.255 | 0.62 |
| Cc1ccc2nsnc2c1S(=O)(=O)NCCC12CC3CC(CC(C3)C1)C2 | 0.24 | 0.621 |
| NC(=O)C1CCN(C(=O)c2ccco2)CC1 | 0.25 | 0.628 |
| O/N=C\c1sccc1Oc1ccccc1 | 0.254 | 0.635 |
| S=c1[nH]c2ccccc2o1 | 0.242 | 0.646 |
| O=S(=O)(c1cc(Br)c(Br)s1)N1CCCCC1 | 0.262 | 0.63 |
| CCN=C(NCC)SC1CC(=O)N(c2ccc(C(=O)O)cc2)C1=O (stereo unspecified) | 0.246 | 0.617 |
| OC(CNCCc1cccs1)COc1ccccc1 (stereo unspecified) | 0.251 | 0.641 |
| Cn1c2ccccc2c2nnc(SCC(=O)Nc3nccs3)nc21 | 0.256 | 0.638 |
| NC(=S)N/N=C\c1ccc(F)c(Cl)c1 | 0.282 | 0.62 |
| CCOc1ccc(C(C)(C)C(=O)Nc2ccc(C(=O)/C=C/c3ccco3)cc2)cc1 | 0.266 | 0.639 |
| COc1ccc(-c2c(C)oc3ccc(Cl)cc23)cc1 | 0.247 | 0.609 |

Reprinted at random: three entries already listed.

| SMILES | plate-normalized OD600 growth (temperature: 15°C, 48 h) | plate-normalized OD600 growth (temperature: 37°C, 24 h) |
| --- | --- | --- |
| COc1ccc(-c2c(C)oc3ccc(Cl)cc23)cc1 | 0.247 | 0.609 |
| NC(=S)N/N=C\c1ccc(F)c(Cl)c1 | 0.282 | 0.62 |
| COc1cc(C2Nc3cccc4cccc(c34)N2)cc(OC)c1OC | 0.233 | 0.636 |

Going on with the list:

| SMILES | plate-normalized OD600 growth (temperature: 15°C, 48 h) | plate-normalized OD600 growth (temperature: 37°C, 24 h) |
| --- | --- | --- |
| COCc1cc(C)c2c(n1)sc1c2nc(C)n2c3ccccc3nc12 | 0.244 | 0.619 |
| Cc1ccc(C)c(-c2cc(N=Nc3ccccc3C)c(O)o2)c1 | 0.247 | 0.619 |
| COc1ccc(N2C(=O)c3ccc(Oc4cccc(N)c4)cc3C2=O)cc1 | 0.251 | 0.612 |
| Cn1c(=O)n(CC(=O)Nc2nn(-c3ccccc3)nc2C(N)=O)c2ccccc21 | 0.261 | 0.639 |
| Cc1noc(N)c1C(N)=S | 0.247 | 0.612 |
| Cc1ccc(-n2c(C)cc(/C=N/NC(=O)CN(Cc3ccccc3)S(=O)(=O)c3ccc(C)cc3)c2C)cc1 | 0.252 | 0.64 |
| COc1cccc(NC(=O)CSCc2ccc(Cl)cc2)c1 | 0.241 | 0.62 |
| COC(=O)CC1OC(=O)c2ccccc21 (stereo unspecified) | 0.243 | 0.631 |
| Cc1cc(C)c2nc3s/c(=C\c4ccccc4C(F)(F)F)c(=O)n3c2c1 | 0.249 | 0.593 |
| O=C(O)c1cccc(-c2ccc(/C=c3/sc4nc(-c5ccccc5)c(-c5ccccc5)n4c3=O)o2)c1 | 0.259 | 0.641 |
| O=C(O)c1nccnc1C(=O)O | 0.242 | 0.622 |
| CCNc1nc(Cl)nc(NCCNC(=O)COc2ccc(Cl)cc2Cl)n1 | 0.247 | 0.598 |
| CSc1ccc(C(=O)O)s1 | 0.249 | 0.646 |
| CC(C)(C)c1nccc(-c2nn(-c3ccc(F)cc3)ccc2=O)n1 | 0.271 | 0.618 |
| O=c1cc(N2CCCC2)c2ccccc2o1 | 0.237 | 0.618 |
| O=C(N/N=C/c1ccc(OC(=O)c2cccc(F)c2)cc1)C1=NNC(c2ccccc2)(c2ccccc2)C1 | 0.267 | 0.624 |
| O=C1CCCc2c1c1ccccc1n2Cc1ccccc1 | 0.284 | 0.637 |
| O=[N+]([O-])c1cc(Cl)cc(/C=N/NC(=Nc2ccccc2)c2ccccn2)c1O | 0.22 | 0.625 |
| N/C(=N\OC(=O)c1ccccc1F)c1nonc1N | 0.26 | 0.619 |
| CCOc1ccc(Nc2nnc(-c3ccncc3)s2)cc1 | 0.257 | 0.626 |
| Cc1ccc(N=Cc2ccc(Sc3nc4ccccc4s3)o2)cc1 | 0.245 | 0.625 |
